Experimental data: PubChem BioAssay AID2685 (National Center for Advancing Translational Sciences (NCATS), 2010)
This is one part of the list. These are further read-outs of the screen, such as a control signal, another cell line or another target. No call is given for them. Compounds called inactive in the main read-out are mostly missing here. Words in brackets tell the shape of the fitted curve; partial curves, single points and poor fits give uncertain potencies.

Assay: qHTS Assay for Lipid Storage Modulators in Drosophila S3 Cells;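 for cell number change: cells counted by Cell Tracker Red CMTPX staining in the red channel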
Details: BODIPY lipid droplet fluorescence, 18-24 h; for cell number change: measured here: cell count max response, cells fed with added oleic acid
Outline: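 Drosophila S3 cells loaded with oleic acid (400 uM, as added) and compounds at several concentrations; lipid droplets imaged by 488-nm laser-scanning cytometry, 500–530 nm intensity and object ratio to cell channel. Percent activity normalized to 20 uM Triacsin C.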

[1] = measured here: lipid fluorescence (Fed channel) AC50, cells fed with added oleic acid
[2] = measured here: cell number channel AC50, cells fed with added oleic acid

Compound | cell number change [%] | AC50 [1] | AC50 [2]
COc1ccc(NC(=O)Cn2nnc(C(N)=O)c2N)c(OC)c1 | -14.4 | 29.1 µM [falling, single point] | –
COc1cccc(CNC(=O)Cc2ccc(-c3ccccc3)cc2)c1 | 11.5 | – | –
CNC(=S)NC1(C)CCS(=O)(=O)C1 (stereo not drawn) | -17.8 | 0.82 µM [falling, full curve, poor fit] | –
COc1ccc(CN2CC(C(=O)NCc3ccc4c(c3)OCO4)CC2=O)cc1 (stereo not drawn) | 10.6 | 0.82 µM [falling, full curve, poor fit] | –
CCNC(=O)Nc1ccc(OC)cc1OC | -22.2 | – | –
CC1(C)CC(=O)c2c(oc3cc(O)c(O)cc23)C1 | -17 | – | 6.51 µM [falling, single point]
CSc1cc(-c2ccccc2)n(Cc2ccccc2Cl)c(=O)c1C#N | – | – | 1.84 µM [rising, partial curve]
Cc1ccc(-n2ncc(Cl)c2C(=O)NCc2ccccc2)cc1 | 3.98 | 6.51 µM [rising, single point] | –
O=C(N/N=C/c1ccc[nH]1)c1cc(-c2cccs2)nc2ccccc12 | -33.4 | – | –
Cc1cc(NC(=O)CCCN2C(=O)c3cccc4cccc(c34)C2=O)no1 | 32 | 32.6 µM [rising, partial curve] | –
CCOc1cccc(NC(=O)C2CCCN(S(=O)(=O)c3ccc(OC)cc3)C2)c1 (stereo not drawn) | – | 7.31 µM [falling, partial curve] | –
COc1ccc(S(=O)(=O)N2CCCC(C(=O)Nc3ccc(NC(=O)c4ccccn4)cc3)C2)cc1 (stereo not drawn) | -8.81 | – | –
Cc1ccc(Oc2coc3cc(O)ccc3c2=O)cc1 | -16.1 | – | –
CCN(CC)S(=O)(=O)c1ccc(NC(=O)c2cnc(C)cn2)cc1 | 1.46 | – | –
c1ccc(-c2c3ccccc3nc3[nH]c4ccccc4c23)cc1 | -15.9 | 4.61 µM [rising, partial curve] | –
CN(c1ccccc1)c1ccc(/C=N/N2CCOCC2)cc1 | 45.7 | 6.51 µM [rising, single point] | 29.1 µM [rising, single point]
CC(=O)c1ccc(NC(=O)CN2C(=O)CCC2=O)cc1 | -5.41 | – | –
CCCCCCn1c(=O)[nH]c2nc3cc(N)ccc3nc2c1=O | -101 | 16.4 µM [falling, partial curve] | 20.6 µM [falling, single point]
O=C(COc1ccccc1[N+](=O)[O-])N(Cc1ccccc1)c1ccccn1 | 12 | 0.116 µM [falling, full curve, poor fit] | –
COC(=O)C1=C(C)NC(=O)NC1c1ccco1 (stereo not drawn) | – | 0.517 µM [falling, single point] | –
O=C(Nc1ncn[nH]1)c1cc(S(=O)(=O)Nc2ccc(Cl)cc2)ccc1Cl | -0.0814 | 6.51 µM [rising, partial curve, poor fit] | –

Compound | cell number change [%] | AC50 [1] | AC50 [2]
C=CCC(C#Cc1ccccc1)N(C)C (stereo not drawn) | 2.92 | – | –
Cc1ccc(NC(=O)COc2ccc(/C=C3/NC(=O)NC3=O)cc2)cc1 | 31.9 | 0.00461 µM [rising, full curve, poor fit] | –
COc1ccc(S(=O)(=O)N2c3ccccc3OCC2C(C)(C)C)cc1 (stereo not drawn) | 9 | – | –
COC(=O)CSc1nnc(C)n1-c1ccc(C)cc1 | -12.7 | – | 0.0411 µM [falling, full curve, poor fit]
C[C@H](NC(=O)c1nc[nH]c1C(=O)NCCCCCN)C(=O)OCc1ccccc1 | -19.5 | 0.411 µM [falling, single point] | –
Cc1cccc(C(=O)OCC(=O)NC2CCCCCCC2)c1 | -7.52 | 2.31 µM [rising, single point] | –
COC(=O)c1cc(CSc2nnc(-c3ccccc3)c(-c3ccccc3)n2)oc1C | -34.1 | – | 23.1 µM [falling, single point]
Cc1nc(=O)c(-c2ccccc2)c(C)n1-c1ccccc1O | -33.4 | 1.03 µM [falling, full curve, poor fit] | 0.116 µM [falling, full curve]
c1coc(-c2nnc(NC3=NCCC3)o2)c1 | -185 | 29.1 µM [falling, partial curve] | 25.9 µM [falling, partial curve]
Cc1nc(NCCc2ccc(F)cc2)c2nnn(Cc3ccccc3)c2n1 | -15.4 | – | –
CCOC(=O)Cc1csc(SCc2nc3ccccc3c(=O)[nH]2)n1 | 24 | – | 0.231 µM [rising, full curve, poor fit]
O=C(CNC(=O)c1ccco1)OCc1cccc(Cl)c1 | -0.0749 | 0.411 µM [falling, single point] | –
CCOC(=O)C(=Cc1c[nH]c2ccc(S(=O)(=O)N(C)C)cc12)C(=O)OCC | 9.55 | – | 0.92 µM [rising, partial curve]
COc1ccc(-c2nn(-c3ccccc3)cc2C(=O)N(C)C)cc1 | 28.4 | 29.1 µM [rising, single point] | 4.11 µM [rising, full curve, poor fit]
COc1nc(NCc2cccnc2)nc(OC)n1 | -20 | 32.6 µM [falling, partial curve] | 3.66 µM [falling, single point]
Cn1cnnc1SCC(=O)Nc1ccc(Cl)cn1 | -10.3 | – | 7.31 µM [falling, single point]
COc1ccc(C(=O)N2CCN(c3ccccc3OC)CC2)cc1 | 13.7 | 1.16 µM [rising, full curve, poor fit] | –
CS(=O)(=O)N(CC(=O)N1CCN(Cc2ccc3c(c2)OCO3)CC1)c1ccc2c(c1)OCO2 | -8.79 | 6.51 µM [rising, single point] | –
Cc1cc(C)cc(-n2ncc3c2CCCC3NC(=O)CCN2Cc3ccccc3C2=O)c1 (stereo not drawn) | -29.2 | 29.1 µM [falling, single point] | 5.17 µM [falling, full curve, poor fit]
FC(F)(F)c1cc(-c2ccccc2)nc(NCc2cccs2)n1 | -35.8 | 8.2 µM [falling, partial curve, poor fit] | 14.6 µM [falling, partial curve]
O=C(CN1C(=O)C2C3C=CC(C3)C2C1=O)Nc1nncs1 (stereo not drawn) | 8.98 | – | –

Compound | cell number change [%] | AC50 [1] | AC50 [2]
COc1ccc(CCn2nnnc2C(c2ccc(Cl)cc2)N2CCN(C)CC2)cc1OC (stereo not drawn) | 0.415 | – | 0.146 µM [falling, full curve, poor fit]
Cc1ccc(CNC(=O)CS(=O)Cc2nc(-c3cccs3)oc2C)cc1 (stereo not drawn) | 61.4 | 1.46 µM [rising, partial curve] | 1.64 µM [rising, full curve]
COc1ccc(CCNC(=O)c2cc(S(=O)(=O)N3CCOCC3)cn2C)cc1OC | -15.6 | 0.00411 µM [falling, full curve, poor fit] | –
CN(C)Cc1ccc(CNC(=O)c2ccc(Cl)c(S(=O)(=O)NC3CC3)c2)cc1 | -6.33 | 2.31 µM [falling, partial curve] | –
C/C(Cn1nnc([N+](=O)[O-])n1)=N\NC(=O)c1ccccc1O | -22.2 | 25.9 µM [falling, partial curve] | –
CCCc1nc2nc(C)c(NS(=O)(=O)c3ccc4c(c3)CCCC4)c(=O)n2[nH]1 | -7.94 | 5.17 µM [rising, full curve] | –
COC(=O)c1cc2sccc2n1CC(=O)N1CCCc2ccccc21 | – | 2.91 µM [rising, partial curve] | 2.31 µM [rising, partial curve]
O=C(OCCOc1cccc(Cl)c1)c1ccc2ncsc2c1 | 3.6 | 29.1 µM [rising, single point] | –
CN(C)CC(=O)Nc1cc(C(F)(F)F)ccc1Cl | – | 29.1 µM [falling, single point] | –
Cc1ccc(NC(=O)C2CCN(S(=O)(=O)c3ccc(N4CCCC4=O)cc3)CC2)cc1Cl | -30.8 | 3.66 µM [falling, partial curve] | 9.2 µM [falling, single point]
CCOc1ccc(CCNC(=O)c2cccnc2N2CCCC2)cc1OCC | 22.3 | 23.1 µM [rising, single point] | –
COC(=O)CC(NS(=O)(=O)c1cccs1)c1ccc2c(c1)OCO2 (stereo not drawn) | -18.4 | 7.08 µM [falling, partial curve] | –
CN(Cc1ccccc1)c1nc2c(c(=O)n(C)c(=O)n2C)n1CCCc1ccccc1 | – | – | 6.51 µM [rising, single point]
CCOC(=O)CN1C(=O)N[C@@H](c2ccccc2)C(C(C)=O)=C1C | 17.5 | – | –
C/C(=N\NC(=O)c1ccc(CSc2nncn2C)cc1)c1ccc2ccccc2c1 | 14.3 | 3.26 µM [rising, single point] | –
COC(=O)c1sc(-c2cccs2)cc1NC(=O)/C=C/C(=O)O | -16.7 | 29.1 µM [falling, single point] | –
O=C(Nc1ccc(N2CCOCC2)c(Cl)c1)c1ccc(-n2cnnc2)cc1 | 8.62 | 1.84 µM [falling, partial curve] | –
CN(C)C(=O)CSc1nnc2sc3ccccc3n12 | -32.6 | 0.00461 µM [falling, full curve, poor fit] | 6.51 µM [falling, single point]
O=S(=O)(NC1CCCCC1NCc1ccco1)c1ccc(Cl)cc1 (stereo not drawn) | -6.45 | 6.51 µM [falling, single point] | 1.84 µM [falling, partial curve]
CC(=O)c1noc(C)c1C(=O)Nc1nccs1 | – | 0.58 µM [rising, single point] | –

15 compounds from above, ordered by formula weight, falling:
Compound | cell number change [%] | AC50 [1] | AC50 [2]
COc1ccc(CCNC(=O)c2cc(S(=O)(=O)N3CCOCC3)cn2C)cc1OC | -15.6 | 0.00411 µM [falling, full curve, poor fit] | –
CN(C)Cc1ccc(CNC(=O)c2ccc(Cl)c(S(=O)(=O)NC3CC3)c2)cc1 | -6.33 | 2.31 µM [falling, partial curve] | –
CN(Cc1ccccc1)c1nc2c(c(=O)n(C)c(=O)n2C)n1CCCc1ccccc1 | – | – | 6.51 µM [rising, single point]
C/C(=N\NC(=O)c1ccc(CSc2nncn2C)cc1)c1ccc2ccccc2c1 | 14.3 | 3.26 µM [rising, single point] | –
CCCc1nc2nc(C)c(NS(=O)(=O)c3ccc4c(c3)CCCC4)c(=O)n2[nH]1 | -7.94 | 5.17 µM [rising, full curve] | –
Cc1ccc(CNC(=O)CS(=O)Cc2nc(-c3cccs3)oc2C)cc1 (stereo not drawn) | 61.4 | 1.46 µM [rising, partial curve] | 1.64 µM [rising, full curve]
O=C(Nc1ccc(N2CCOCC2)c(Cl)c1)c1ccc(-n2cnnc2)cc1 | 8.62 | 1.84 µM [falling, partial curve] | –
O=S(=O)(NC1CCCCC1NCc1ccco1)c1ccc(Cl)cc1 (stereo not drawn) | -6.45 | 6.51 µM [falling, single point] | 1.84 µM [falling, partial curve]
COC(=O)c1cc2sccc2n1CC(=O)N1CCCc2ccccc21 | – | 2.91 µM [rising, partial curve] | 2.31 µM [rising, partial curve]
COC(=O)c1sc(-c2cccs2)cc1NC(=O)/C=C/C(=O)O | -16.7 | 29.1 µM [falling, single point] | –
O=C(OCCOc1cccc(Cl)c1)c1ccc2ncsc2c1 | 3.6 | 29.1 µM [rising, single point] | –
CCOC(=O)CN1C(=O)N[C@@H](c2ccccc2)C(C(C)=O)=C1C | 17.5 | – | –
CN(C)C(=O)CSc1nnc2sc3ccccc3n12 | -32.6 | 0.00461 µM [falling, full curve, poor fit] | 6.51 µM [falling, single point]
CN(C)CC(=O)Nc1cc(C(F)(F)F)ccc1Cl | – | 29.1 µM [falling, single point] | –
CC(=O)c1noc(C)c1C(=O)Nc1nccs1 | – | 0.58 µM [rising, single point] | –
